{"source": "patent US10442838", "about": "(dated 2019)", "experiment": "general procedure: Fmoc solid-phase peptide synthesis; Fmoc-Tyr(tBu)-Wang resin, 0.50 mmol/g (Wang or 2-chloro resin); DIC/HOBt", "conditions": "oxidative folding step", "data": [{"substance": "linaclotide", "values": [{"measurement": "oxidative folding yield", "value": 70, "unit": "%"}, {"measurement": "final purity (method not given)", "setting": "HPLC", "value": 99.5, "unit": "%"}]}]}
